At least one peptide structure holds a part that was inferred or is arguable (an end, a ring closure or a residue). No end group written: not given here.
Key:
Format in all cases: cell-based
[1] = target: T1, FPRL1 (Homo sapiens, UniProt P25090); test: Calcium flux in CHO-K1 cells co-transfected with FPRL1 and Gα16; parameters: expressed in transfected cells; host or cells: CHO-K1 (ATCC-CCL-61), transient co-transfection; conditions: 1 μM, three wells, about 20 to 90 seconds
T1 sequence (P25090 1-351): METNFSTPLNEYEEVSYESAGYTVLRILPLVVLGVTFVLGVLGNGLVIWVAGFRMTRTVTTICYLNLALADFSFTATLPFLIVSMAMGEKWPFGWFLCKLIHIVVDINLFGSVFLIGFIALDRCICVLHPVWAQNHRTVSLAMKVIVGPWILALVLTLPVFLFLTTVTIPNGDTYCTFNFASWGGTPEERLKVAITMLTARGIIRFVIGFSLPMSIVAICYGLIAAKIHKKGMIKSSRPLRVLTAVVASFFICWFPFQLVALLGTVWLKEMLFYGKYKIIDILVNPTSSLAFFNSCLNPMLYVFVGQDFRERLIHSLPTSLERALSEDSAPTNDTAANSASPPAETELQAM
Description: (§1) The assay was carried out in CHO cells were transiently transfected with the GPCR of choice, by utilizing the promiscuous Gα16 to divert signaling to the Gq pathway, thus enabling readout of GPCR activation by testing for Calcium flux as described by Liu et al 2003 (Biomol Screen 8, 39-49).
(§2) All the peptides thus obtained were tested for their ability to change calcium flux in CHO—K1 cells (ATCC-CCL-61) transiently co-transfected with an expression vector containing the GPCR of choice and expression vector containing the Gα16 encoding cDNA. Expression constructs containing cDNA clones for MrgX1, MrgX2, Mas or FPRL1 were commercially obtained in one of the following expression vectors: pcDNA3.1, pCMV6, or MO2.
(§3) Transient transfections were performed using CHO—K1 cells as host cells. Cells (12 million) were plated into T75 flasks on the day preceding transfection. Cells were transfected with the appropriate GPCR expression vector and with a vector expressing Gα16 using a lipid-based reagent, MTI, according to the manufacturer's recommendation. Cells were transfected for 5 hours, then re-plated into 96-well dishes (60,000 cells per well) and grown overnight.
(§4) On the day of the experiment, cells were loaded with Fluo4-NW (Invitrogen) according to the manufacturer's recommendation. Plates were loaded into a FlexStation™ (Molecular Devices) plate reader and fluorescence was monitored. Seventeen seconds following initiation of reading, cells were stimulated with the indicated agonist/compound at final concentration of 1 μM. Each 96 well plate contained cells transfected with one GPCR expression vector and each of the examined peptides was tested in triplicate.
(§5) We defined a hit as a peptide which elicited a clear and distinct increase in intracellular calcium that is clearly visible and statistically significant upon examination of the calcium trace for at least two repeats. […]
(§6) Based on dose response experiments, EC50 best fit values were calculated by non-linear regression of sigmoidal dose-response curves, using Prism version 4 (GraphPad Software Inc., San Diego, Calif.). […]

By UniProt entry, the sequences of proteins in these tests, tags left out. Where a name states a change or a piece, a line headed by the entry shows the natural chain unless it says otherwise.
UniProt Q96LB2: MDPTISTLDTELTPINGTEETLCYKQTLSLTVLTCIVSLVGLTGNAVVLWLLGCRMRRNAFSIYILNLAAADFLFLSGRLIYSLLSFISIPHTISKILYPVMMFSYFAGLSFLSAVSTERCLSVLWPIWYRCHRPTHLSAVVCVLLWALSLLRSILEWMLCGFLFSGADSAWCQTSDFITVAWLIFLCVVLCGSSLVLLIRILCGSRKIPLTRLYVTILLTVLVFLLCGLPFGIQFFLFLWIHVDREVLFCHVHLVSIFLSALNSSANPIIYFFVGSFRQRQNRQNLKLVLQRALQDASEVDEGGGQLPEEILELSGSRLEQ

[2] = target: T2, MrgX2 (Homo sapiens, UniProt Q96LB1); test: Calcium flux in CHO-K1 cells co-transfected with MrgX2 and Gα16
T2 construct: expressed in transfected cells; host or cells: CHO-K1 (ATCC-CCL-61), transient co-transfection
T2 sequence (Q96LB1 1-330): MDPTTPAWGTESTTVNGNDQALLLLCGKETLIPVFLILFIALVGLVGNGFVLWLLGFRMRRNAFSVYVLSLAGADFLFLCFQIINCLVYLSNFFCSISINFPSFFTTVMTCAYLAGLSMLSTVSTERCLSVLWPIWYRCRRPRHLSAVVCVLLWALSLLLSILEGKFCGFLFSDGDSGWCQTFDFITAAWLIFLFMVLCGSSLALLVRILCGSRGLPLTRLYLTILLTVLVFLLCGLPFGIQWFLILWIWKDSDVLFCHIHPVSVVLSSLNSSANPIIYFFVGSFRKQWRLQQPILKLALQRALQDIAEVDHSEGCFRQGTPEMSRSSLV
Description: as §1, §2, §3, §4
We defined a hit as a peptide which elicited a clear and distinct increase in intracellular calcium that is clearly visible and statistically significant upon examination of the calcium trace for at least two repeats. The criterion for statistical significance was a p-value lower than 0.001 in a t-test comparing the levels of calcium before and after peptide addition.
Based on dose response experiments, EC50 best fit values were calculated by non-linear regression of sigmoidal dose-response curves, using Prism version 4 (GraphPad Software Inc., San Diego, Calif.). The formulae for the sigmoidal dose-response curves was defined as Y=Bottom+(Top−Bottom)/(1+10^ (LogEC50−X)*HillSlope))
The ability of Peptides to change calcium flux was examined in CHO—K1 cells co-transfected with MrgX2 and Gal 6.

[3] = target: T3, MrgX1 (Homo sapiens, UniProt Q96LB2); test: Calcium flux in CHO-K1 cells co-transfected with MrgX1 and Gα16
T3 construct: expressed in transfected cells; host or cells: CHO-K1 (ATCC-CCL-61), transient co-transfection
Description: as §1, §2, §3, §4, §5, §6

Sequence: GIGSVWHWKHRVATRFTLPRFLQ [Peptide P60_S]
- calcium flux relative to the negative control [1]: increased calcium flux
- calcium flux relative to the negative control ([2]; 1 μM, about 20 to 90 seconds): increased calcium flux
- eliciting calcium flux compared to cortistatin-14 ([2]; MrgX2-expressing cells, summary statement): superior to cortistatin-14
- calcium flux relative to the negative control ([3]; 1 μM, three wells, 20 to 90 seconds): increased calcium flux
- eliciting calcium flux compared to BAM22 ([3]; MrgX1 expressing cells, summary statement): superior to BAM22
- response at the highest concentration compared to positive control BAM22 ([3]; dose response, highest concentration 3000 nM): similar
